Where two headings read alike, the source gives them in different places. No constants are given. Whether binding was seen depends on the method and setting. Binding seen in cells or lysates may run through a third protein. Some results given as binding are weak or reduced against the parent protein; the word gives no strength.

By UniProt entry, the sequences of proteins in these tests, tags left out. Residues count along the entry.
UniProt O76031, residues 57-633: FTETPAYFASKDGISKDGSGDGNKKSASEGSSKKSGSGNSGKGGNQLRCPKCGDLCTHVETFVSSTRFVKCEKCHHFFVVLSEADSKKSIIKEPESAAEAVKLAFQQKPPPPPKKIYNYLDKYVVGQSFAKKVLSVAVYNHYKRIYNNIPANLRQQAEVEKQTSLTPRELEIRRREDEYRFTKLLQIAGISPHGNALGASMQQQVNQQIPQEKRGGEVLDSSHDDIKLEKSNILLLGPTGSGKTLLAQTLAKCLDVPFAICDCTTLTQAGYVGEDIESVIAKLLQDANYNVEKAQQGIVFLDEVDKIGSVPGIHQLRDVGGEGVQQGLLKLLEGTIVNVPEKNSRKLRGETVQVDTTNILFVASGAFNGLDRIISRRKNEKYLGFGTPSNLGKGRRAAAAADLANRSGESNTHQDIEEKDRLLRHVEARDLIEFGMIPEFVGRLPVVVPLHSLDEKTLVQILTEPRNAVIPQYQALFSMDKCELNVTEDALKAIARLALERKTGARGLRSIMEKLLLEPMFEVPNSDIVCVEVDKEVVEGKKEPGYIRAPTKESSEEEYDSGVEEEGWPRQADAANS
UniProt P40939, residues 37-763: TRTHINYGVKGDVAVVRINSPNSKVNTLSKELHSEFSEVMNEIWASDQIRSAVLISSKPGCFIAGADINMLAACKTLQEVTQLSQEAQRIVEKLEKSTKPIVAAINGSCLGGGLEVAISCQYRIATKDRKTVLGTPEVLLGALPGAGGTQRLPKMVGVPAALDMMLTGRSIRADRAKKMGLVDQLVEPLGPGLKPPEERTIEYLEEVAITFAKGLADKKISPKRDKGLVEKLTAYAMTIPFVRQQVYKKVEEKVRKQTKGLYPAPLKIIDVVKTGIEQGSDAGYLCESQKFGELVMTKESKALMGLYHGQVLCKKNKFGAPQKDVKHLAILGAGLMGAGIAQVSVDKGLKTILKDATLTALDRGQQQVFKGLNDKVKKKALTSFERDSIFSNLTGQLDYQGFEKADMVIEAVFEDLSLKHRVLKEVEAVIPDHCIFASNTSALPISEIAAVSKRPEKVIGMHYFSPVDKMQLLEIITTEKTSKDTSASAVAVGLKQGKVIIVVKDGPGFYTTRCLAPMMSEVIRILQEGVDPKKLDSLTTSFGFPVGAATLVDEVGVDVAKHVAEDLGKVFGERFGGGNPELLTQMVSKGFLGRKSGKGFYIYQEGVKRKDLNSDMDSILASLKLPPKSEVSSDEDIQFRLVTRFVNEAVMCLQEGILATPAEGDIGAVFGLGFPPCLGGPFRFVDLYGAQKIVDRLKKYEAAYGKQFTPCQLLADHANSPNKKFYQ

Test [1] has as its target T1, Trifunctional enzyme subunit beta, mitochondrial (human (endogenous in FT293 and HepG2)) (UniProt P55084).
T1 sequence: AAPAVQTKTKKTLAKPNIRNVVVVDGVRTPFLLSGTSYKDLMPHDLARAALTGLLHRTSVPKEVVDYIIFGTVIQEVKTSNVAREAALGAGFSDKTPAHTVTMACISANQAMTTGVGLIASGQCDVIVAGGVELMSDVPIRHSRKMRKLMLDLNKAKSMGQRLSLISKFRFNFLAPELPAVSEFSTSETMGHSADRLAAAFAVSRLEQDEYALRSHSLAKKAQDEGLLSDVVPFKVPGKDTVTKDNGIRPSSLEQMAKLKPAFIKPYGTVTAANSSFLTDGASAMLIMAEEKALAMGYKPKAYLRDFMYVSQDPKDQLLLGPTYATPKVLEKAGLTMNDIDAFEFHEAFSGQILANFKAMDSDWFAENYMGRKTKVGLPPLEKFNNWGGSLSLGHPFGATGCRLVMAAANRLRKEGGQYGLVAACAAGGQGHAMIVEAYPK
Briefly: co-IP; endogenous HADHB precipitated with anti-HADHB antibody and Dynabeads Protein G from HepG2 lysate, overnight 4 °C, Western blot; CLPX-WT and CLPX-KO cells, CLPX-WT cells with or without 50 nM Gcg; rabbit IgG as negative control. In general terms: In western blotting, separated proteins are transferred to a membrane and probed.

For test [2], the target named is endogenous CLPX (human (endogenous in HepG2)) (UniProt O76031). The test is described as follows: co-IP; endogenous CLPX precipitated with anti-CLPX antibody and Dynabeads Protein G from HepG2 (CLPX-WT) lysate, overnight 4 °C, Western blot; cells with or without 50 nM Gcg; rabbit IgG as negative control.
The target of test [3] is Trifunctional enzyme subunit alpha, mitochondrial (human (endogenous in FT293 and HepG2)) (UniProt P40939). The test is described as follows: co-IP; endogenous HADHA precipitated with anti-HADHA antibody and Dynabeads Protein G from HepG2 lysate, overnight 4 °C, Western blot; CLPX-WT and CLPX-KO cells, CLPX-WT cells with or without 50 nM Gcg; rabbit IgG as negative control.

Test [4] has the same target. Described as above. The source holds these as a separate data set.

Regarding “Trifunctional enzyme subunit alpha, mitochondrial (from UniProt P40939 37-763)”, the binding entry in test [1] and in test [2] was “binds” in each case.

In the case of “endogenous CLPX (from UniProt O76031 57-633)”, the binding entry in test [1] and in test [3] was “binds” each time.

B1: hydroxyacyl-CoA dehydrogenase (protein, UniProt Q16836 13-314)
chain: SSSSTASASAKKIIVKHVTVIGGGLMGAGIAQVAAATGHTVVLVDQTEDILAKSKKGIEESLRKVAKKKFAENLKAGDEFVEKTLSTIATSTDAASVVHSTDLVVEAIVENLKVKNELFKRLDKFAAEHTIFASNTSSLQITSIANATTRQDRFAGLHFFNPVPVMKLVEVIKTPMTSQKTFESLVDFSKALGKHPVSCKDTPGFIVNRLLVPYLMEAIRLYERGDASKEDIDTAMKLGAGYPMGPFELLDYVGLDTTKFIVDGWHEMDAENPLHQPSPSLNKLVAENKFGKKTGEGFYKYK
As for B1, the binding result in test [4] and in test [1] was “binds” each time.

B2: Enoyl-CoA hydratase, mitochondrial (protein, UniProt P30084 28-290)
chain: ASGANFEYIIAEKRGKNNTVGLIQLNRPKALNALCDGLIDELNQALKTFEEDPAVGAIVLTGGDKAFAAGADIKEMQNLSFQDCYSSKFLKHWDHLTQVKKPVIAAVNGYAFGGGCELAMMCDIIYAGEKAQFAQPEILIGTIPGAGGTQRLTRAVGKSLAMEMVLTGDRISAQDAKQAGLVSKICPVETLVEEAIQCAEKIASNSKIVVAMAKESVNAAFEMTLTEGSKLEKKLFYSTFATDDRKEGMTAFVEKRKANFKDQ
For B2, the binding entry in test [4], in test [1] and in test [2] was “binds” throughout.

B3: 3-Ketoacyl-CoA thiolase, mitochondrial (protein, UniProt P42765 1-397)
chain: MALLRGVFVVAAKRTPFGAYGGLLKDFTATDLSEFAAKAALSAGKVSPETVDSVIMGNVLQSSSDAIYLARHVGLRVGIPKETPALTINRLCGSGFQSIVNGCQEICVKEAEVVLCGGTESMSQAPYCVRNVRFGTKLGSDIKLEDSLWVSLTDQHVQLPMAMTAENLAVKHKISREECDKYALQSQQRWKAANDAGYFNDEMAPIEVKTKKGKQTMQVDEHARPQTTLEQLQKLPPVFKKDGTVTAGNASGVADGAGAVIIASEDAVKKHNFTPLARIVGYFVSGCDPSIMGIGPVPAISGALKKAGLSLKDMDLVEVNEAFAPQYLAVERSLDLDISKTNVNGGAIALGHPLGGSGSRITAHLVHELRRRGGKYAVGSACIGGGQGIAVIIQSTA
For B3, the binding result in test [4], in test [1] and in test [2] was “binds” throughout.

These data come from article PMC10556790.
